Results deposited as PubChem BioAssay AID1259308 (NCATS, 2017)
The deposit covers about 59,000 reagents; below is an unselected part. About 1,510 of all reagents (2.6%) were called active. 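Calls use total luciferase alone and ignore viability, so some active siRNAs may act by altering cell number.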 Not all columns of the deposit are shown.

Screen: 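Candidate targets for better recombinant protein yield in mammalian cells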 (primary screen)
Cell system: human HEK293 embryonic kidney cells stably expressing firefly luciferase (HEK-CMV-Luc2-Hygro)
Knock-down reagent: single siRNA against human genes, 0.8 pmol siRNA per well
Timing: 72 h
Read-out: 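Reporter luminescence and viable-cell signal on separate replicate plates, given as percent of non-targeting control and median/MAD z-scores, plus per-cell luciferase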
Reading the numbers: total luciferase, z-score and total luciferase, % of control: higher = more reporter protein produced; luciferase per cell, z-score: higher = more reporter output per viable cell
Rule for the call: 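Active when the median/MAD z-score for overall luciferase is greater than 3; a gene was taken forward for validation with new siRNAs if at least two of its three siRNAs passed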
Meaning of the calls: active = raised luciferase; inactive = no rise

target,PubChem SID,"total luciferase, z-score","total luciferase, % of control","luciferase per cell, z-score",Outcome
PROM2 (prominin 2),SID160759006,1.16,105,0.86,inactive
PROM2 (prominin 2),SID160759007,2.42,130,1.63,inactive
PROM2 (prominin 2),SID160759008,3.77,157,2.3,active
ZBTB35 (zinc finger and BTB domain containing 35),SID160719145,-0.082,80.3,-0.154,inactive
ZBTB35 (zinc finger and BTB domain containing 35),SID160719147,-0.218,77.6,0.381,inactive
ZBTB35 (zinc finger and BTB domain containing 35),SID160719148,-0.995,62.1,-1.49,inactive
D2HGDH (D-2-hydroxyglutarate dehydrogenase),SID160726633,-0.215,77.6,0.119,inactive
D2HGDH (D-2-hydroxyglutarate dehydrogenase),SID160771670,-0.796,66.1,-0.698,inactive
D2HGDH (D-2-hydroxyglutarate dehydrogenase),SID160771671,-2.26,37,-1.88,inactive
IFITM5 (interferon induced transmembrane protein 5),SID160725180,0.181,85.5,0.297,inactive
IFITM5 (interferon induced transmembrane protein 5),SID160725181,-1.55,51,0.542,inactive
IFITM5 (interferon induced transmembrane protein 5),SID160765653,-0.258,76.8,0.583,inactive
LIFR (LIF receptor subunit alpha),SID160776606,-0.741,67.1,-0.434,inactive
LIFR (LIF receptor subunit alpha),SID160776607,-0.54,71.1,-0.951,inactive
LIFR (LIF receptor subunit alpha),SID160776608,-0.255,76.8,-0.333,inactive
SULT6B1 (sulfotransferase family 6B member 1),SID160766686,-1.42,53.6,-0.922,inactive
SULT6B1 (sulfotransferase family 6B member 1),SID160766687,-0.139,79.1,-0.863,inactive
SULT6B1 (sulfotransferase family 6B member 1),SID160766688,1.53,112,1.96,inactive
TCF23 (transcription factor 23),SID160724878,1.07,103,0.678,inactive
TCF23 (transcription factor 23),SID160759028,-0.00939,81.7,1.73,inactive
TCF23 (transcription factor 23),SID160759029,-0.00196,81.8,-0.201,inactive
MEGF8 (multiple EGF like domains 8),SID160758838,-0.241,77.1,-0.402,inactive
MEGF8 (multiple EGF like domains 8),SID160758849,-1.01,61.8,-0.797,inactive
MEGF8 (multiple EGF like domains 8),SID160758859,-0.13,79.3,-0.176,inactive
VPS13A (vacuolar protein sorting 13 homolog A),SID160735776,-1.26,56.9,-1.06,inactive
VPS13A (vacuolar protein sorting 13 homolog A),SID160735777,-0.62,69.5,-0.887,inactive
VPS13A (vacuolar protein sorting 13 homolog A),SID160735778,0.252,86.9,-0.0868,inactive
LINC01118 (long independently transcribed non-coding RNA 1118),SID160733222,-2.49,32.4,-3.39,inactive
LINC01118 (long independently transcribed non-coding RNA 1118),SID160766041,3.46,151,2.93,active
LINC01118 (long independently transcribed non-coding RNA 1118),SID160766042,-2.65,29.2,-2.33,inactive
KIF2A (kinesin family member 2A),SID160776269,0.545,92.7,0.212,inactive
KIF2A (kinesin family member 2A),SID160776270,1.52,112,2.66,inactive
KIF2A (kinesin family member 2A),SID160776271,0.868,99.1,0.158,inactive
DOCK8 (dedicator of cytokinesis 8),SID160750959,-0.0866,80.2,-0.422,inactive
DOCK8 (dedicator of cytokinesis 8),SID160750960,-0.285,76.2,-0.462,inactive
DOCK8 (dedicator of cytokinesis 8),SID160750961,0.216,86.2,-0.252,inactive
GAS2L2 (growth arrest specific 2 like 2),SID160761998,-0.291,76.1,-0.157,inactive
GAS2L2 (growth arrest specific 2 like 2),SID160761999,0.0544,83,0.155,inactive
GAS2L2 (growth arrest specific 2 like 2),SID160762000,-1.62,49.6,-1.33,inactive
HIVEP2 (HIVEP zinc finger 2),SID160774956,0.103,83.9,0.146,inactive
HIVEP2 (HIVEP zinc finger 2),SID160774957,0.0693,83.3,-0.85,inactive
HIVEP2 (HIVEP zinc finger 2),SID160774958,0.705,95.9,0.247,inactive
DSG2 (desmoglein 2),SID160756690,0.367,89.2,0.267,inactive
DSG2 (desmoglein 2),SID160756701,-0.723,67.5,-0.973,inactive
DSG2 (desmoglein 2),SID160756712,0.28,87.5,0.12,inactive
GABARAPL2 (GABA type A receptor associated protein like 2),SID160730538,1.94,120,1.42,inactive
GABARAPL2 (GABA type A receptor associated protein like 2),SID160731071,0.0163,82.2,0.457,inactive
GABARAPL2 (GABA type A receptor associated protein like 2),SID160731081,-1.31,55.9,-1.45,inactive
PDZD2 (PDZ domain containing 2),SID160735295,0.69,95.6,-0.299,inactive
PDZD2 (PDZ domain containing 2),SID160735296,-1.04,61.3,-0.502,inactive
PDZD2 (PDZ domain containing 2),SID160735297,-0.297,76,0.295,inactive
TRAF3IP2 (TRAF3 interacting protein 2),SID160729160,-0.776,66.5,-1.15,inactive
TRAF3IP2 (TRAF3 interacting protein 2),SID160729161,0.464,91.1,0.186,inactive
TRAF3IP2 (TRAF3 interacting protein 2),SID160729162,0.489,91.6,0.528,inactive
UGT2A1 (UDP glucuronosyltransferase family 2 member A1 complex locus),SID160729577,-0.173,78.4,0.556,inactive
UGT2A1 (UDP glucuronosyltransferase family 2 member A1 complex locus),SID160729578,1.37,109,0.774,inactive
UGT2A1 (UDP glucuronosyltransferase family 2 member A1 complex locus),SID160730481,1.08,103,1.52,inactive
